Patent US10772928B2, “Modulation and detection of a neuronal alternative splicing regulatory network for treatment and diagnosis of neurological disorders” (The Governing Council of the University of Toronto, priority 2014, dated 2020)
What was measured is the transcript of the gene that encodes the chain shown.

Tested on: microexons
Test: Neural-regulated microexons by RNA-Seq pipeline across mouse cell and tissue types
Conditions: mouse neural-regulated microexon (mm9); NEURAL-UP or NEURAL-DOWN

B1: Fip1l1 (protein, UniProt Q9D824 1-581, looked up)
Pre-mRNA 3'-end-processing …: MSAGEVERLVELSGGTGGDEEEEWLYGGPWDVHVHSDLAKDLDENEVERPEEENASANPPSGIEEEAAENGVAKPKVTETEDDSDSDSDDDEDDVHVTIGDIKTGAPQYGSYGTAPVNLNIKAGGRVYGNTGTKVKGVDLDAPGSINGVPLLEVDLDSFEDKPWRKPGADLSDYFNYGFNEDTWKAYCEKQKRIRMGLEVIPVTSTTNKITVQQGRTGNSEKEAALPSTKAEFTSPPSLFKTGLPPSRNSTSSQSQTSTASRKASSSVGKWQDRYGRAESPDLRRLPGAIDVIGQTITISRVEGRRRANENSNIQVLSDRSATEVDNNFSKPPPFFPPGAPPTHLPPPPFLPPPPTVSTAPPLIPPPGIPITVPPPGFPPPPGAPPPSLIPTIESGHSSGYDSRSARAFPYGNVAFPHLTSSAPSWPSLVDTTKQWDYYARREKDRDRDRERDRDRERERDRDRERERTRERERERDHSPTPSVFNSDEERYRYREYAERGYERHRASREKEERHRERRHREKEETRHKSSRSNSRRRHESEEGDSHRRHKHKKSKRSKEGKEAGSEPVPEQESTEAAPAE
Regulation in Brain: NEURAL-UP
